Values from PubChem BioAssay AID504786 (Drosophila RNAi Screening Center, 2011).

Test: 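Positive regulators of HIF-driven reporter output in Drosophila cells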 (primary screen)
Cell system: Drosophila S2 cells with a stable HIF luciferase reporter
Reagents: long dsRNA against Drosophila genes, about 0.2 µg dsRNA per well of a 384-well plate
Time to read-out: three days of knock-down, then 20 h of DFO before reading
Challenge: desferrioxamine (DFO) at 100 µM, an iron chelator that mimics hypoxia, for 20 h
Read-out: 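HIF reporter luminescence in cells given 100 µM DFO for 20 h, using the mouse ldh-a hypoxia-response element, scored as per-plate z-scores; higher means greater loss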
Reading the numbers: z-score: higher = stronger loss of HIF reporter signal
In all, the deposit lists about 21,000 reagents; this is a random part of those with a known target gene and a result. 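Primary screen; positive scores mean lost reporter signal, so the sign may be inverted from the usual convention.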 A plus sign joins genes that one reagent is predicted to hit. Not all columns of the deposit are shown. No sequences are given here.

z-score, replicate 1, by target and reagent
tay: DRSC20142 -0.1
ORMDL: DRSC11737 -0.3
CG32374: DRSC10986 -0.4
CG12817: DRSC14555 -0.4
Raf: DRSC18821 -0.2
SmD1: DRSC09800 2.7
CG31999: DRSC17131 -0.3; DRSC17133 -0.3
glo: DRSC16145 0
Cul5: DRSC14723 -0.3
Kif19A: DRSC16576 1.6
CG44422: DRSC18885 0.7; DRSC19380 0; DRSC19480 -0.2
ZC3H3: DRSC10696 6.5
mAChR-B: DRSC16345 5.9
PH4alphaNE2: DRSC16544 -0.3
CG9503: DRSC20186 -0.4
mRRF2: DRSC16143 -0.2
CG4025: DRSC18523 0.1
CG30466: DRSC05556 -0.3
CG31522: DRSC12005 -0.4
Ctr1A: DRSC18336 2
mRpL24: DRSC03113 1.2
CG31882: DRSC01084 -0.7
Parp16: DRSC06597 -0.3
CG33521: DRSC17179 0.2; DRSC17211 -0.3
xmas-1 (retired record): DRSC20386 -0.3
mRpL35: DRSC14586 1.5
Mtl: DRSC16751 -0.3
spn-F: DRSC14475 2.8
CG42816 + CG42815: DRSC11230 -0.1
Arpc3B: DRSC20126 1.2
DAT: DRSC07394 -0.3
Adk2: DRSC09827 -0.2
CG31997: DRSC17105 -0.1
CG6974: DRSC16160 -0.2
tey: DRSC11042 -0.2
wal: DRSC07717 -0.4
thetaTry: DRSC07705 -0.3
CG18542 + CG32939: DRSC15342 -0.4

4 consecutive entries from above:
z-score, replicate 1, by target and reagent
CG12817: DRSC14555 -0.4
Raf: DRSC18821 -0.2
SmD1: DRSC09800 2.7
CG31999: DRSC17131 -0.3

The list goes on:
z-score, replicate 1, by target and reagent
Obp58c: DRSC04166 -0.3
CG9360: DRSC20180 -0.1
CAH9: DRSC15963 -0.2
CG30427: DRSC04014 -0.3; DRSC04311 -0.3; DRSC04323 -0.3
CG7329: DRSC03046 -0.1
Gr66a: DRSC10783 -0.2
CG15873: DRSC04277 0.1
Hip1: DRSC09812 -0.4
CG15548: DRSC15086 -0.5
robl62A: DRSC08153 -0.3
CG30034 (retired record): DRSC05288 -0.2
veil: DRSC06892 -0.2
Alp12: DRSC02515 -0.4
unc-13-4A: DRSC10201 -0.3; DRSC10202 -0.3; DRSC10203 3.7; DRSC11013 -0.2
CG13202: DRSC06326 -0.2
CG42324: DRSC08431 -0.4; DRSC08432 -0.3
Tsp2A: DRSC18584 -0.3
CG10175: DRSC13628 -0.3; DRSC14200 -0.3
BomT3: DRSC13537 -0.4; DRSC15871 -0.4
Cap-D3 + tomb: DRSC02347 -0.3
side-V: DRSC04188 -0.4; DRSC04189 -1
CG3610: DRSC15502 -0.5
Vha16-4 + CG15614: DRSC07321 -0.3
CG12880: DRSC14568 -0.2
Uqcc1 + CG9948: DRSC09690 -0.2
Wnt10: DRSC00990 -0.2; DRSC02797 -0.3
Pkg21D: DRSC00772 -0.2
Swip-1: DRSC02083 -0.2; DRSC02084 -0.2
Uev1A: DRSC09763 -0.5
CG15784: DRSC18090 -0.1
